Type: in vivo

SMILES: CN1CC[C@]23c4c5ccc(O)c4O[C@H]2[C@@H](O)C=C[C@H]3[C@H]1C5.O=S(=O)(O)O [morphine sulfate, reference compound]
- Agonist Activity ED50, Mice (PO) (PO): 3.1 mg/kg
- Agonist Activity ED50, Mice (SC) (SC): 0.26 mg/kg

Source: patent US4246413A, “6-Oxamorphinans” (priority 1979, dated 1981)
